Binding data for one molecule are collected here from PMC6134690.

Results are given in words; binding and its absence hold for the method and conditions named. Binding seen in cells or lysates may run through a third protein. Some entries that bind do so weakly or less than the wild type.

Assay [1] deals with GST-tagged Ras-binding domain of Raf-1 (GST-Raf-1 RBD beads) (UniProt P04049). The assay can be described thus: pull-down; 10 uL GST-Raf1-RBD beads incubated with 500 ug total lysate of MCF-7-TamR cells overnight at 4 °C, washed five times, western blot; cells transfected with NS siRNA or siNgBR, with or without 100 ng/mL EGF for 5 min; only the target purified.
For assay [2], the target named is K-Ras (activated, GTP-loaded) (human (endogenous in MCF-7-TamR)) (UniProt P01116). The assay can be described thus: pull-down; complex of activated (GTP-loaded) Ras precipitated from total lysate of MCF-7-TamR cells with GST-Raf1-RBD beads, NgBR found in it by western blot; cells with or without 100 ng/mL EGF for 5 min, NS siRNA or siNgBR. (In general: In western blotting, separated proteins are transferred to a membrane and probed.)

B1: Nogo-B receptor (NgBR) (protein, UniProt Q96E22 1-293)
chain: MTGLYELVWRVLHALLCLHRTLTSWLRVRFGTWNWIWRRCCRAASAAVLAPLGFTLRKPPAVGRNRRHHRHPRGGSCLAAAHHRMRWRADGRSLEKLPVHMGLVITEVEQEPSFSDIASLVVWCMAVGISYISVYDHQGIFKRNNSRLMDEILKQQQELLGLDCSKYSPEFANSNDKDDQVLNCHLAVKVLSPEDGKADIVRAAQDFCQLVAQKQKRPTDLDVDTLASLLSSNGCPDPDLVLKFGPVDSTLGFLPWHIRLTEIVSLPSHLNISYEDFFSALRQYAACEQRLGK
Consider B1, for which the binding result in assay [1] and in assay [2] was “binds” throughout.
